US20200166530
Construct, isoform or probe ends are uncertain for at least one entry.

Chains of the proteins cited; added tags and fusions are not shown. Residues count along the entry.
UniProt P03372, 181-552: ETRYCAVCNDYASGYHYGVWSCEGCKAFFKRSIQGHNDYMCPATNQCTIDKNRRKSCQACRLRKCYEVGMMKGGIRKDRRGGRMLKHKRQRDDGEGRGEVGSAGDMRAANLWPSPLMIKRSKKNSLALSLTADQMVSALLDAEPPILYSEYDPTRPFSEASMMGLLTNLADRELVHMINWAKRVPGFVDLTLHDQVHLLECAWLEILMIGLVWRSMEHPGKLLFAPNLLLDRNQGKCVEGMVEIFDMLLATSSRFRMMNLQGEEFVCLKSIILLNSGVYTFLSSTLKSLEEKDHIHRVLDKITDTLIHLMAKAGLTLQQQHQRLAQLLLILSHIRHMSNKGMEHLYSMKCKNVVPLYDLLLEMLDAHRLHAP

Biological target: hERαCDE (human estrogen receptor alpha E181-P552, DBD+LBD) WT (Homo sapiens) (UniProt P03372)
Experiment: binding assay
Conditions: size exclusion chromatography and SAXS of complex with E2, TIF2 peptide; purified recombinant protein

Question: Does “TAGGTACACGTGACCTGCG / CGCAGGTCACTGTGACCTA [ERE-DNA used for hERαcomplex]” bind?
Answer: binds
